Reference: patent publication US20240282401A1, “METHODS FOR ENZYME ENGINEERING” (The University of Manchester, priority 2021, published 2024)
For at least one compound, name, drawing or mass did not settle the structure.

The chains behind the UniProt entries cited, without tags or fusion partners. A line that says so, or that is headed by a name, gives the form on record, which may keep a tag or linker.
UniProt P08159, other isoform, or with tags, fused parts or gaps A42S/A237T/E349L/E351D/N413H/V430A/C432S: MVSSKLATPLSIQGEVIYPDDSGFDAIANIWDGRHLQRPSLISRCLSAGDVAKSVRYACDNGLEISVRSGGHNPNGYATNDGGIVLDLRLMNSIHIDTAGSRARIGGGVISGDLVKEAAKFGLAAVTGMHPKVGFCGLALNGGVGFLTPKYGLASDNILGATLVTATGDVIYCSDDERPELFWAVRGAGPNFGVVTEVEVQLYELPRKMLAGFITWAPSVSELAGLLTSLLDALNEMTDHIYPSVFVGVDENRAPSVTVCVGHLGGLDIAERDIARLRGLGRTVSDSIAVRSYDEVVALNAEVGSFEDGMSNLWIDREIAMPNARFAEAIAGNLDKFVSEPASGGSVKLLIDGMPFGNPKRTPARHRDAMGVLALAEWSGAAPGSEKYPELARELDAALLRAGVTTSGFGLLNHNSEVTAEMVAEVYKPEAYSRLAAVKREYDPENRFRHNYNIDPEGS

Molecular target: T1, HDNO D6 (Paenarthrobacter nicotinovorans, UniProt P08159, A237T/A42S/E349L/E351D/N413H/V430A)
T1 construct: This full-length gene design was then used to introduce genetic diversity to create a library; His tag (N); made in house; host or cells: E. coli BL21 (DE3)
Experiment: Biotransformation turnover frequencies of amine substrates (GC-FID)
Type: biochemical, Arthrobacter nicotinovorans
Protocol: Chiral normal phase HPLC was performed on an Agilent HPLC system (G1379A degasser, G1312A binary pump, a G1367A well plate autosampler unit, a G1316A temperature-controlled column compartment and a G1315C diode array detector) (Agilent Technologies Inc., Santa Clara, CA) equipped with a CHIRALCEL OD-H (250 mm length, 4.6 mm diameter, 5 μm particle size) analytical column (Daicel Corp., Osaka, Japan). The typical injection volume was 10 μL and chromatograms were monitored at 265 nm. Gas chromatographic (GC) analysis was performed on an Agilent 6850 GC (Agilent Technologies Inc., Santa Clara, CA) with a flame ionization detector and autosampler equipped with a HP-1 column of length 30 m, 0.32 mm inner diameter and 0.25 μm film thickness (Agilent Technologies Inc., Santa Clara, CA).
A typical 500 μL reaction mixture in a 2 mL tube contained 10 mM amine, 0.05 to 1 mg mL^−1 of purified HDNO variant in pH 8 100 mM NaPi buffer. […] The organic fractions were combined and dried over anhydrous MgSO4 and analysed by GC-FID (conversions) or HPLC (enantiomeric ratios) on a chiral stationary phase (see Chromatography section for details). Turnover frequencies (TOF, min^−1) were calculated as the moles of product formed/moles of enzyme min^−1 based on conversions obtained by GC-FID analysis (see Chromatography method). […]

In the case of `c1ccc(C2CCCCN2)cc1` (centres unmarked) [Mutant 1e, phenyl piperidine], the TOF (HDNO D6 0.05 mg mL^−1, 10 mM substrate, 30° C., pH 8 100 mM buffer, conversions after 10 min) is reported as 24.6 min⁻¹ and the “Fold increase vs D2” value (TOF of HDNO D6 over HDNO D2 (0.2 mg ml^−1)) is reported as 3.1 fold.
